According to patent US20020147170A1 (priority 2000, published 2002):
At least one compound was matched to its structure with a doubt left.

System: HEK293 cells
Experiment: CRE-Luc reporter in HEK293 cells transfected with pcDNA1
Assay type: cell-based
Settings: no cotransfected receptor

For `C=C[C@@]1(C)CC(=O)[C@]2(O)[C@@]3(C)[C@@H](O)CCC(C)(C)[C@@H]3[C@H](O)[C@H](OC(C)=O)[C@@]2(C)O1` [forskolin], the “effect on the response of CRE-Luc” value was “positive effect”.
